For the experiment, the target named is T1, human cystatin E, wild type, with C-terminal His6 tag followed by a Strep-tag (human) (UniProt Q15828).
T1 sequence: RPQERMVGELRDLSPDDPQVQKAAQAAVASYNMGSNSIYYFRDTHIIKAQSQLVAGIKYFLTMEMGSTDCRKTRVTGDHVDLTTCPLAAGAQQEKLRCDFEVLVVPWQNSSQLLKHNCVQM
The experiment is described as follows: pull-down; Strep-tagged cystatin E co-incubated with cystatin C at 70 °C for 10 min, 10 min on ice, loaded on Strep-Tactin Sepharose; 100 mM Tris pH 8.0, 150 mM NaCl; eluted with 2.5 mM desthiobiotin; SDS-PAGE; both purified.

The record followed here is publication PMC6109925, “Structural and functional analysis of cystatin E reveals enzymologically relevant dimer and amyloid fibril states” (The Journal of Biological Chemistry, 2018).

No constants are given. Whether binding was seen depends on the method and setting. Sequences can lack the tags named with a protein.

B1: human cystatin C, wild type (natural protein, UniProt P01034 27-146, looked up)
chain: SSPGKPPRLVGGPMDASVEEEGVRRALDFAVGEYNKASNDMYHSRALQVVRARKQIVAGVNYFLDVELGRTTCTKTQPNLDNCPFHDQPHLKRKAFCSFQIYAVPWQGTMTLSKSTCQDA
notes: N terminus Ser1 after removal of the pelB leader. numbers count on: the mature protein; Called 'untagged hCC' in the pull-down (it has no Strep-tag), while the methods give a C-terminal His6 tag for the expression constructs; also called hCC; WT cystatin C; source: E. coli Bl21(DE3), periplasm (pelB leader), purified (nickel-nitrilotriacetic acid resin, SEC)
For the molecule B1, the binding result is recorded as “no binding”.
